Measured values as given in patent US10716798B2, “Compositions and methods for tranquilizing heart muscle” (THE REGENTS OF THE UNIVERSITY OF MICHIGAN, priority 2007, dated 2020).
Some of these results come from one statement about several compounds together.

Test system: SHHF rats
Assay: Cardiac hemodynamic parameters by echocardiography in SHHF rats
Assay type: in vivo, rat
Details: Vitamin D5 33 ng/day, 13 week treatment
Method: Five treatment groups were established using SHHF rats. In each cohort (5-6 rats), the diets were substantially identical, rats were each fed a high salt diet (8% NaCl) (Harlan Teklad diet TD92012, Madison Wis. USA) and were accommodated equally. All treatment groups received a single once daily administration subcutaneously (SQ) of a Vitamin D compound at varying concentrations five times per week. The Vitamin D compound was dissolved in 1,2 propandiol containing 0.7% ethanol. Control SHHF rats were dosed with vehicle control alone. The animals were dosed for a period of 13 weeks before they were examined by echocardiography explained in more detail below. […]
After 13 weeks of treatment with the Vitamin D compounds or vehicle control alone, the SHHF rat's cardiac hemodynamic condition was measured, recorded and analyzed for the presence or absence of cardiac tranquilization and reversal of heart failure symptoms.
Non-invasive recording electrocardiograms and echocardiography in conscious rats: Two-dimensional and M-mode echocardiographic images will be recorded using a GE S10 MHz phased-array transducer, connected to a General Electric, Vivid 7 Ultrasound System. […] ECG is monitored via non-invasive resting ECG electrodes (trimmed to fit) placed on the paw pads. […]

Compound: C=C1/C(=C\C=C2/CCC[C@]3(C)[C@@H]([C@H](C)CC[C@@H](CC)C(C)C)CC[C@@H]23)C[C@@H](O)C[C@@H]1O [1α-hydroxysitocalciferol, 1-α-hydroxy-2,4-ethyl-9,10-seco-5,7,10(19)-cholestatrien-3 β-ol]
- E/A ratio: ≥ 1.6
